This experiment can be described thus: qHTS Assay for Lipid Storage Modulators in Drosophila S3 Cells.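 For cell number change: cells counted by Cell Tracker Red CMTPX staining in the red channel.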 The note with it: BODIPY lipid droplet fluorescence, 18-24 h; for cell number change: measured here: cell count max response, cells fed with added oleic acid. In outline:
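Laser-scanning cytometry quantifies lipid droplet accumulation (500–530 nm total intensity; droplet/cell object ratio) in oleic acid-fed (400 uM added) Drosophila S3 cells treated with a concentration series. 20 uM Triacsin C defined 100% inhibition.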

The mark [1] stands for this setting: measured here: lipid fluorescence (Fed channel) AC50, cells fed with added oleic acid.
Where [2] appears, read: measured here: cell number channel AC50, cells fed with added oleic acid.

Each structure is given as a SMILES string. This is one part of the list. Shown are side measurements of this screen, not its main read-out; they come without a call. Most of these compounds were active or inconclusive in the main read-out, so they are no random draw. The note in brackets gives the kind of curve behind each potency; many fits are weak.

One may read the AC50 as the concentration giving half of the maximal activity seen. Read a low AC50 as greater potency.

As to `O=C(Nc1nccs1)c1ccc(Cl)s1`, the cell number change is -7.28%. Under setting [1], the AC50 was 0.13 µM [falling, full curve, poor fit].
In the case of `CCCCCCSc1nnc2[nH]c(=O)cc(N)n12`, the cell number change amounted to 16.1%. Also, under setting [1], the AC50 was 16.4 µM [rising, single point].
`CCCCOC(=O)c1ccc(S(N)(=O)=O)o1`: the cell number change is -26%. In addition, the AC50 under setting [1] is 0.291 µM [falling, full curve, poor fit].
In the case of `Cc1cc(C)cc(N=c2c([N+](=O)[O-])nn(-c3ccc(Cl)cc3)n2O)c1`, the cell number change is -78%. The AC50 under setting [2] is 18.4 µM [falling, single point]. In addition, the AC50 under setting [1] is 14.6 µM [falling, partial curve].
`COc1ccc(-n2ncc(Cl)c(Cl)c2=O)cc1`: the AC50 under setting [1] was 6.51 µM [rising, single point].
On to `COc1ccc(S(=O)(=O)Nc2ccc(-n3cnnn3)cc2)cc1[N+](=O)[O-]`, for which the cell number change turned out to be 12%. Further, the AC50 under setting [1] was 14.6 µM [rising, partial curve, poor fit].
`Cc1ccc(SCC(=O)NCCSC(C)(C)C)cc1`: the cell number change was -14.9%. In addition, the AC50 under setting [1] is 0.0517 µM [falling, full curve, poor fit].
`Cc1ccc(CNC(=O)CS(=O)(=O)CC(=O)O)cc1`: the cell number change was -64.2%. Under setting [2], the AC50 was 3.66 µM [falling, full curve]. The AC50 under setting [1] was 18.4 µM [falling, single point].
With `Fc1ccc2[nH]c3c(N4CCN(C5CCCCC5)CC4)ncnc3c2c1`, the cell number change is -17.1%. The AC50 under setting [1] is 16.4 µM [falling, partial curve].
In the case of `CC(C)CNS(=O)(=O)c1ccc(CCC(=O)N2CCN(c3ccc(F)cc3)CC2)cc1`, the cell number change is -23.2%. The AC50 under setting [1] was 0.461 µM [falling, full curve].
`O=C(NCCSc1ccc(Br)cc1)c1ccc2nc[nH]c2c1`: the cell number change was found to be 8.67%.
Consider `CSc1ccccc1C(=O)Nc1ccccc1C(=O)N1CCCC1`, for which the cell number change was determined as 3.69%. Further, under setting [2], the AC50 is 6.51 µM [falling, single point].
Turning to `Cc1cccc(NC(=O)CSc2ccc(-c3ccccn3)nn2)c1C`, the cell number change worked out at 11%. Further, the AC50 under setting [1] was 0.231 µM [rising, partial curve, poor fit].
With `CCOc1ccc(CNCCN2CCCC2)cc1`, under setting [1], the AC50 is 16.4 µM [falling, single point].
As to `CCN(c1ccccc1)S(=O)(=O)c1ccc(C(=O)Nc2nnc(CSC)o2)cc1`, the cell number change is -34.2%. Besides, the AC50 under setting [2] was 0.00517 µM [falling, full curve, poor fit].
For the compound `O=C(NCC1CCCO1)c1cn(-c2ccccc2)nc1-c1ccc(F)cc1` (stereo not drawn), the cell number change came to 40.8%. For the same compound, under setting [2], the half-maximal activity concentration (AC50) was 29.1 µM [rising, single point]. In addition, the AC50 under setting [1] is 23.1 µM [rising, partial curve, poor fit].
In the case of `CCCC(=O)c1cc2c(cc1NC(=O)c1ccccc1F)OCCO2`, the cell number change came out at 19.5%. Also, the AC50 under setting [2] is 1.16 µM [rising, partial curve, poor fit].
`CCCCn1c(SCC(=O)Nc2cc(C)on2)nnc1-c1cccs1`: the cell number change was 4.05%. In addition, the AC50 under setting [1] is 0.259 µM [rising, full curve, poor fit].
Take `COc1ccc(-c2csc(NC(=O)CN3C(=O)CCC3=O)n2)c(OC)c1`: the cell number change is -17.3%. The AC50 under setting [1] is 16.4 µM [falling, single point].
As for `COc1ccc([N+](=O)[O-])cc1NC(=O)COC(C)=O`, the cell number change was -11.8%.
As to `Cc1cc(C)nc(NC(=O)Cc2ccc([N+](=O)[O-])cc2)c1`, the cell number change was -53.4%. For the same compound, the AC50 under setting [2] is 29.1 µM [falling, single point]. In addition, the AC50 under setting [1] was 11.6 µM [rising, partial curve].
For `COc1ccc(N2CCN(C(=O)C3CCC(Cn4c(=S)[nH]c5ccccc5c4=O)CC3)CC2)cc1` (stereo not drawn), the cell number change is -32.5%. Under setting [2], the AC50 is 18.4 µM [falling, single point]. In addition, the AC50 under setting [1] was 0.206 µM [rising, partial curve].
Turning to `Cn1nc(C(=O)OCC(=O)Nc2ccc3ccccc3c2)c2ccccc2c1=O`, the cell number change stood at 30.3%.
As for `Cc1cc(NC(=O)C(C)SCC(=O)Nc2ccc(Br)cc2Br)no1` (stereo not drawn), the cell number change came to 25.4%.
`CCCCn1c(N)c(N(CCOC)C(=O)c2cccc(S(=O)(=O)N(CC)c3ccccc3)c2)c(=O)[nH]c1=O`: the cell number change stood at 75%. The AC50 under setting [2] is 0.146 µM [falling, full curve, poor fit].
As to `Cc1ccccc1NC(=O)c1cc(S(=O)(=O)N2CCOCC2)cn1C`, the cell number change is 18.4%. Also, the AC50 under setting [1] is 29.1 µM [rising, single point].
Turning to `N#C/C(=C\c1ccc(OCc2ccc(C(=O)O)cc2)cc1)C(=O)NCc1ccccc1`, the cell number change was -14.7%. Moreover, the AC50 under setting [1] is 29.1 µM [falling, single point].
`COc1cc(N2CN=c3s/c(=C\c4ccccn4)c(=O)n3C2)cc(OC)c1OC`: the cell number change was determined as 22.2%. For the same compound, under setting [2], the AC50 was 0.116 µM [rising, full curve].
As to `Cc1cc(C(=O)O)c(CCCN)s1`, the cell number change is -5.07%. For the same compound, the AC50 under setting [2] was 0.82 µM [rising, partial curve].
As to `COCCCNC(=O)c1ccc(CS(=O)(=O)Cc2cccc(C)c2)o1`, the cell number change was found to be 13.4%. The AC50 under setting [1] was 29.1 µM [rising, single point].
For the compound `CN(C)/C=C(/C(=O)c1ccc(Cl)cc1)S(=O)(=O)c1ccccc1`, the AC50 under setting [2] was 0.0206 µM [falling, full curve, poor fit].
Turning to `CCOc1ccc(-n2cnc3c(=O)[nH]c(N)nc32)cc1`, the cell number change was 16.9%.
For the compound `Cc1ccc2oc(C(=O)N(Cc3nccn3C)C(C)C)c(C)c2c1`, the cell number change is -14.1%. Besides, the AC50 under setting [1] was 13 µM [falling, partial curve, poor fit].
`Nc1nonc1-c1nc2ccccc2n1CC(=O)N1CCCCC1`: the cell number change was found to be 22.5%. For the same compound, the AC50 under setting [2] is 0.461 µM [falling, single point]. For the same compound, the concentration at half-maximal activity (AC50) under setting [1] was 0.58 µM [falling, single point].
`CCCC[C@]12Cc3cc(OC)c(OC)cc3C(O1)C1=C(CC3(CCCCC3)OC1=O)O2`: the cell number change was -3.99%.
In the case of `O=C(CCCc1nc2ccccc2s1)NC1CCOC1=O` (stereo not drawn), the cell number change is -18.4%. The AC50 under setting [1] is 0.326 µM [falling, single point].
Regarding `COc1ccc(C(C)C)cc1S(=O)(=O)Nc1ccc(Cl)cn1`, the cell number change turned out to be 32.1%. Besides, the AC50 under setting [2] is 10.3 µM [rising, partial curve, poor fit].
In the case of `Cc1onc(-c2ccccc2Cl)c1C(=O)NCc1cccnc1`, the cell number change was 25.1%.
`COC(=O)c1cn(-c2ccccc2)nc1-c1cccnc1`: the cell number change worked out at 93.1%. Besides, the AC50 under setting [2] is 6.51 µM [rising, partial curve]. In addition, the AC50 under setting [1] was 0.146 µM [rising, single point].
Consider `CCOC(=O)C(NC(C)=O)(Nc1ccc(S(=O)(=O)Nc2cc(C)nc(C)n2)cc1)C(F)(F)F` (stereo not drawn), for which the cell number change was -31.6%. Also, the AC50 under setting [2] is 7.31 µM [falling, partial curve, poor fit]. For the same compound, under setting [1], the AC50 is 0.411 µM [falling, full curve].

The record behind these values is PubChem BioAssay AID2685 (National Center for Advancing Translational Sciences (NCATS), 2010).
